The other results are listed elsewhere or left out.
Experiments:
Assay in all cases: glycan array binding signal (z-score within array); higher = stronger binding
Conditions in all cases: glycan notation: IUPAC condensed, linker removed
Neu5Ac(a2-6)GalNAc = tested on: Neu5Ac(a2-6)GalNAc
Outline: (§1)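 The binding signal is a Z-score computed within each array and averaged over linkers. Arrays of the same protein sequence at different concentrations or buffers were also averaged together. Data originate from 3228 arrays in the Consortium for Functional Glycomics database, kept only where the protein sequence was available.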

Neu5Ac(a2-6)Gal = tested on: Neu5Ac(a2-6)Gal
Outline: as §1

[1] = tested on: Neu5Ac(a2-6)GlcNAc(b1-4)GlcNAc(b1-4)GlcNAc
Outline: as §1

[2] = tested on: Neu5Ac(a2-6)GlcNAc(b1-4)GlcNAc
Outline: as §1

[3] = tested on: Neu5Ac(a2-8)Neu5Ac(a2-3)Gal(b1-3)GalNAc(b1-4)[Neu5Ac(a2-8)Neu5Ac(a2-3)]Gal(b1-4)Glc
Outline: as §1

[4] = tested on: Neu5Ac(a2-8)Neu5Ac(a2-3)Gal(b1-4)Glc
Outline: as §1

[5] = tested on: Neu5Ac(a2-8)Neu5Ac(a2-3)[Gal(b1-3)GalNAc(b1-4)]Gal(b1-4)Glc
Outline: as §1

[6] = tested on: Neu5Ac(a2-8)Neu5Ac(a2-3)[GalNAc(b1-4)]Gal(b1-4)Glc
Outline: as §1

[7] = tested on: Neu5Ac(a2-8)Neu5Ac(a2-8)Neu5Ac(a2-3)Gal(b1-4)Glc
Outline: as §1

[8] = tested on: Neu5Ac(a2-8)Neu5Ac(a2-8)Neu5Ac(a2-3)[GalNAc(b1-4)]Gal(b1-4)Glc
Outline: as §1

[9] = tested on: Neu5Ac(a2-8)Neu5Ac(a2-8)Neu5Ac(a2-8)Neu5Ac(a2-3)[GalNAc(b1-4)]Gal(b1-4)Glc
Outline: as §1

[10] = tested on: Neu5Ac(a2-8)Neu5Ac(a2-8)Neu5Ac
Outline: as §1

Neu5Ac(a2-8)Neu5Ac = tested on: Neu5Ac(a2-8)Neu5Ac
Outline: as §1

[11] = tested on: Neu5Ac(b2-6)Gal(b1-4)GlcNAc
Outline: as §1

Neu5Ac(b2-6)GalNAc = tested on: Neu5Ac(b2-6)GalNAc
Outline: as §1

[12] = tested on: Neu5Ac9Ac(a2-3)Gal(b1-3)GlcNAc
Outline: as §1

[13] = tested on: Neu5Ac9Ac(a2-3)Gal(b1-4)GlcNAc
Outline: as §1

[14] = tested on: Neu5Ac9Ac(a2-6)Gal(b1-4)GlcNAc
Outline: as §1

[15] = tested on: Neu5Gc(a2-3)Gal(b1-3)GlcNAc
Outline: as §1

[16] = tested on: Neu5Gc(a2-3)Gal(b1-3)[Fuc(a1-4)]GlcNAc
Outline: as §1

[17] = tested on: Neu5Gc(a2-3)Gal(b1-4)GlcNAc
Outline: as §1

Neu5Gc(a2-3)Gal(b1-4)Glc = tested on: Neu5Gc(a2-3)Gal(b1-4)Glc
Outline: as §1

[18] = tested on: Neu5Gc(a2-3)Gal(b1-4)[Fuc(a1-3)]GlcNAc
Outline: as §1

[19] = tested on: Neu5Gc(a2-6)Gal(b1-4)GlcNAc
Outline: as §1

Neu5Gc(a2-6)GalNAc = tested on: Neu5Gc(a2-6)GalNAc
Outline: as §1

[20] = tested on: Neu5Gc(b2-6)Gal(b1-4)GlcNAc
Outline: as §1

In the case of Wza (Escherichia coli), P0A930, the “glycan array binding signal (z-score)” value (Neu5Ac(a2-6)GalNAc) is reported as -0.032, the “glycan array binding signal (z-score)” value (Neu5Ac(a2-6)Gal) is reported as 0.8 and the “glycan array binding signal (z-score)” value [1] is reported as -0.523. The “glycan array binding signal (z-score)” value [2] was 2.36, the “glycan array binding signal (z-score)” value [3] was -0.952 and the “glycan array binding signal (z-score)” value [4] was 0.72. For the same substance, the “glycan array binding signal (z-score)” value [5] was -0.37, the “glycan array binding signal (z-score)” value [6] was -0.306 and the “glycan array binding signal (z-score)” value [7] was 0.179. The “glycan array binding signal (z-score)” value [8] was -1.54, the “glycan array binding signal (z-score)” value [9] was -0.938 and the “glycan array binding signal (z-score)” value [10] was -0.6. For the same substance, the “glycan array binding signal (z-score)” value (Neu5Ac(a2-8)Neu5Ac) was -0.374, the “glycan array binding signal (z-score)” value [11] was 1.45 and the “glycan array binding signal (z-score)” value (Neu5Ac(b2-6)GalNAc) was -1.62. For the same substance, the “glycan array binding signal (z-score)” value [12] was 0.929, the “glycan array binding signal (z-score)” value [13] was -1.32 and the “glycan array binding signal (z-score)” value [14] was -1.06. The “glycan array binding signal (z-score)” value [15] was -0.642, the “glycan array binding signal (z-score)” value [16] was -0.122 and the “glycan array binding signal (z-score)” value [17] was -0.426. For the same substance, the “glycan array binding signal (z-score)” value (Neu5Gc(a2-3)Gal(b1-4)Glc) was -0.672, the “glycan array binding signal (z-score)” value [18] was 0.354 and the “glycan array binding signal (z-score)” value [19] was -0.914. The “glycan array binding signal (z-score)” value (Neu5Gc(a2-6)GalNAc) was -1.36 and the “glycan array binding signal (z-score)” value [20] was -0.929.
